This test has as its target Chm7-GFP (endogenously expressed) (S. cerevisiae). As to the kind of experiment: affinity purification with mass spectrometry.

This passage reports binding results from doi:10.1101/523670.

No constants are given. Whether binding was seen depends on the method and setting. In cells and extracts the contact can be indirect. Here binding means that the protein was enriched with, or labelled near, the bait; the list need not be complete. A no says only that the protein was not detected with the bait.

B1: Heh2 (protein, UniProt Q03281 1-663)
chain: MDHRNLDPKTLKVSQLRRVLVENDVAFPANARKPVLVKLFEEKVRQRLQSSPEASKVRTSIQKVVKSGAKNADRKKTLKSKKLESSSSESKTVKDENVETNKRKREQISTDNEAKMQIQEEKSPKKKRKKRSSKANKPPESPPQSKSDGKATSADLTSELETVEELHKKDSSDDKPRVKELPKPELPNLKVSNEFLAQLNKELASAATENYDHSIKSTDLSSIRIETEEPVGPSTGAETRNESEVMENINLEVQPEVKEAKEELTKISETFDNQDEEDTSRLSSKKNIRSPKGRTRHFIANKTKRGIDIMKPFIAHLFIWLWNGAIFLSIICPILFGLWYREQRIQVGYCGHEKPLKSLAISAFPQTERVDSVLQAYRPNCLECPEHGICSSFMNVECEPGYEPKSSILETYGIIPFPKYCAKDESKEKEVDELVWKVNEYLKKKNAQHECGEGENLFESGETETKLYDIFSHSRPSWESQREFNDHWKNVLEILKKKDDIIWLPLDFETNGKREKSKSNNTNYIYRSTSKKWVTLQCHLEGDIQEYITKYGGSLFITLGVLFLIKKIQSTLDNYVQGEQIIEKLVKEAIDKLKDVKKNKGEEPFLTTVQLRATLLSDIPNIKEQNNLWAQTKEKIMKEQSENIELYLLEENGEIMTCWEWKE
Regarding B1, the binding result is reported as “no binding”.

B2: Heh1 (protein, UniProt Q03707 1-834)
chain: MNSDLEYLEDGFDPNSMKVATLRRILVENNVDFPSNARKNALVGLFDEKVKPQIPQLRKMYLNVRPSDEGIVKMDRPSSSPSIASPRRSRRARREKSASPMAKQFKKNRILDDVSNDDDDDDDDDDDNDKKDDPLIVPSGTDTDEVDDEEDDVITSSSNKSDTNDFQQNSDTRKKRKDPDSDDWSESNSKENKIDNKHLNLLSSDSEIEQDYQKAKKRKTSDLNQEHGNGSAILGKLSVKTPIKNTNRKPVSMDNFNDSLTSSGTENDPFVPNIRHNPKELGTANGTGHSTPLSKLKVSASFADKLPQKEVPSTILVPEVEQQEPSQSERTPSLFSSEGSGSESEAPLLPEITTPGPHQPMGNTSNNVVEMIDTDSSNLVSDEDEVLVPTRIETPQLPTEKDVEKCEARVQELQEEVNEQLEHENGSEFDVKQGSGKVGNRHKFKRALKFLSKSLLALFLFCIFIVIPLLFGLWYREQRLLIGYCGHEVPSHRVSGNSFEFIQKLDNLLQDYRPKCIPCPPNGICYPYLKLKCKPDYKLAPSRLDFLEIIPAQGKCVKDDKKQQLVSEVVEKSLEFLRAKNAQISCGDGKDDIESGMTEDALYQIFNEARAPWIRDDEFEDLWIQVIKDLTEEPEILWRQLSPTDNNIGGNSNNIIKTNDVPRQKRHLPEKFISKTRNFRSTSKKYIGMKCRFEREIYQTYKKFQRPIWLMFLLIVISKVIEIKLKNYYRKKARIEELVTQTMEKLKFQKIKSMSDPKENAYLSIVQLRDIFLSDIVDLKYKNQLWSEVVKYLEHNNSNIKSNLTEIRGEIMKCWEWIGPMELNEPKDSAENKI
Consider B2, for which the binding result is listed as “binds”.

B3: Vps20 (protein, UniProt Q04272 1-221)
chain: MGQKSSKVHITKTDRAILEVKRSKDEIHKFTRRTDNLILVEKSQLKDLIRKNPENYKSNMKVRFLLKRIHYQEHLLQQASDQLINLENMVSTLEFKMVEKQFINGLKNGNEILKKLNKEFSNVDELMDDVQDQIAYQNEINETLSRSLVGTSNYEDDLDKELDALESELNPEKMNNAKVANMPSTEGLPSLPQGEQTEQKEREEFATEERSDTKEPLALLS
On to B3, for which the binding entry was “binds”.

B4: Snf7 (protein, UniProt P39929 1-240)
chain: MWSSLFGWTSSNAKNKESPTKAIVRLREHINLLSKKQSHLRTQITNQENEARIFLTKGNKVMAKNALKKKKTIEQLLSKVEGTMESMEQQLFSIESANLNLETMRAMQEGAKAMKTIHSGLDIDKVDETMDEIREQVELGDEISDAISRPLITGANEVDEDELDEELDMLAQENANQETSKIVNNNVNAAPISENKVSLPSVPSNKIKQSENSVKDGEEEEDEEDEDEKALRELQAEMGL
For B4, the binding entry is given as “binds”.

B5: Nur1 (protein, UniProt Q12066 1-484)
chain: MGSNDLINEAYDDSEVVGEERESKSAWMKRWYQLLTSPLDLQLVINEKLEMINWDAYAKSLAKPLGNFLTILFFIIRLLQDNLIKPNYYKLNVKSGAFDLSKSNKLKEFDYLWEISSSFQNNNQFYAFQSWYFVTLRFLNNLFRFTIFILLSLNLYVSCKFMFGYFKTYNLFHLKKEFNSPNLTKHNLKDLSKEYYEDIYKQSLWSMLKHFFRGSRDDGPHVNQNEDEIFFQLRKWIPTNFMINLFVSFSPTAIVFLSFSDVSFTSAIAIVFHQYILDYIITKRFQRSVDDDLILSSAALQEYEDKHIMARINQCSNIDTLSSAMGTRSKTPRIFTTHSLCGEEIREVYNYEKREFEALPKMTESVPGSRETRIKDYGGISQVSDHQSHPIGFHYSPRMSPYYRDKVLDNNLAQSSSNENLEKGGAYLPNQDQNRPSKSLSPLRKTPLSARQKRFEGSEFNVLNKNDINSILRSPKKKKNYHKR
As to B5, the binding result was “binds”.
